These results are taken from paper doi:10.1101/2021.12.21.473581.

The chains behind the UniProt entries cited, without tags or fusion partners. Where a name states a change or a piece, a line headed by the entry shows the natural chain unless it says otherwise. Residues count along the entry.
UniProt P13688, residues 35-526: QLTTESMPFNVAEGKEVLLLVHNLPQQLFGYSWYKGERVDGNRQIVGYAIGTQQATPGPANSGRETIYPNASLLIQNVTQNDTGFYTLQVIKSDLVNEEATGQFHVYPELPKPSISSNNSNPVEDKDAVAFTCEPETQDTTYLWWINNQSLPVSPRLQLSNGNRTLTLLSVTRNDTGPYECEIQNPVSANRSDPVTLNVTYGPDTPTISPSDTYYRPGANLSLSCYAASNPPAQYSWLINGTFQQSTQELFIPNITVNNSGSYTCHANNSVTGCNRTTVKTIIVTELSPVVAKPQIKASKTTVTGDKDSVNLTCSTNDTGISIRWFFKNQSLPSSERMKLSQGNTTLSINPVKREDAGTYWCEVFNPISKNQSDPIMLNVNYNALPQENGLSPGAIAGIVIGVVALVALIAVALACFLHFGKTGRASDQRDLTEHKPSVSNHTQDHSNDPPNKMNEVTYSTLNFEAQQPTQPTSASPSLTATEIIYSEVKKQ

These are yes or no findings as the source states them, for the method shown. Binding seen in cells or lysates may run through a third protein. Some binding calls cover weakened binding; strength is not graded here.

This assay deals with CEACAM1-4L with a carboxyl-terminus fused eYFP (CEACAM1-eYFP) (UniProt P13688). Kind of assay: FRET or BRET.

As for “CEACAM1-4L with a carboxyl-terminus fused eYFP (CEACAM1-eYFP) (from UniProt P13688-1 35-526) (receptor)”, the binding result was “binds”.
